# Reference: article PMC10256725
# Chains of the proteins cited; added tags and fusions are not shown.
# UniProt Q06142: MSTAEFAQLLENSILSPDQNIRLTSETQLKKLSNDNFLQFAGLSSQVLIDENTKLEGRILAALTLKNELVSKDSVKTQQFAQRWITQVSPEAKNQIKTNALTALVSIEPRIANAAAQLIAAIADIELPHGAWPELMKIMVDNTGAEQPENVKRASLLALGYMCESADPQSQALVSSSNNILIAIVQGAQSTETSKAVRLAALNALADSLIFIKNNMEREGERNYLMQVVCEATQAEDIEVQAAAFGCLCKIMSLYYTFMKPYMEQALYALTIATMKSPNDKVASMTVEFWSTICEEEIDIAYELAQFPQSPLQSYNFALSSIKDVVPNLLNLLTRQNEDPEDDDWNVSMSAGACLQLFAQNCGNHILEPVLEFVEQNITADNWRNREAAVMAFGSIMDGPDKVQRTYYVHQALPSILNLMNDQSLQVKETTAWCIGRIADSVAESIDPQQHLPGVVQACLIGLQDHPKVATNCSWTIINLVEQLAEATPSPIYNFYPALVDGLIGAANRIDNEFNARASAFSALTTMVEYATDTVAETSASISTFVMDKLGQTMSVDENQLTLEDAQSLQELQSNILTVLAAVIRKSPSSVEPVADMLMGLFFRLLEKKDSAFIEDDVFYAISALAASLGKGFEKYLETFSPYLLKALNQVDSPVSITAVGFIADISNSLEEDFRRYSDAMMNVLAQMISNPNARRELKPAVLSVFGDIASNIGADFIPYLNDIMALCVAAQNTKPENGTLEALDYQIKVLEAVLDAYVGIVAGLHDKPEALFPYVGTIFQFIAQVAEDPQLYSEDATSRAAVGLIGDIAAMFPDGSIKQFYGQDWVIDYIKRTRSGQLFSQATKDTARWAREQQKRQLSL
# UniProt Q02821: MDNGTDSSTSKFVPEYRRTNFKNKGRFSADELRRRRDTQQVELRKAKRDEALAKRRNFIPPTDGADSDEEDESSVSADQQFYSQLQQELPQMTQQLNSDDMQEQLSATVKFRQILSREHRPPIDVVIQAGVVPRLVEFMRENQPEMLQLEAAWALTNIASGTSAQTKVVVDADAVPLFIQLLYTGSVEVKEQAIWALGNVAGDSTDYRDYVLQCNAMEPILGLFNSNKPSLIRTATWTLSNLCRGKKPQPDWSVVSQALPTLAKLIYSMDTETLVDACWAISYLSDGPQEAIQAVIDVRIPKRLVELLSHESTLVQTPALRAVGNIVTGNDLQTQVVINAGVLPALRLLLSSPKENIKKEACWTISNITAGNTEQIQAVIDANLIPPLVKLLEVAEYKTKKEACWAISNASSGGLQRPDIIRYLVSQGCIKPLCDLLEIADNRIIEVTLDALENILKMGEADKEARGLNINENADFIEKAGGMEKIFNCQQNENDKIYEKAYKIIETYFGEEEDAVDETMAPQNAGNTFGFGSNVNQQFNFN
# UniProt P53115: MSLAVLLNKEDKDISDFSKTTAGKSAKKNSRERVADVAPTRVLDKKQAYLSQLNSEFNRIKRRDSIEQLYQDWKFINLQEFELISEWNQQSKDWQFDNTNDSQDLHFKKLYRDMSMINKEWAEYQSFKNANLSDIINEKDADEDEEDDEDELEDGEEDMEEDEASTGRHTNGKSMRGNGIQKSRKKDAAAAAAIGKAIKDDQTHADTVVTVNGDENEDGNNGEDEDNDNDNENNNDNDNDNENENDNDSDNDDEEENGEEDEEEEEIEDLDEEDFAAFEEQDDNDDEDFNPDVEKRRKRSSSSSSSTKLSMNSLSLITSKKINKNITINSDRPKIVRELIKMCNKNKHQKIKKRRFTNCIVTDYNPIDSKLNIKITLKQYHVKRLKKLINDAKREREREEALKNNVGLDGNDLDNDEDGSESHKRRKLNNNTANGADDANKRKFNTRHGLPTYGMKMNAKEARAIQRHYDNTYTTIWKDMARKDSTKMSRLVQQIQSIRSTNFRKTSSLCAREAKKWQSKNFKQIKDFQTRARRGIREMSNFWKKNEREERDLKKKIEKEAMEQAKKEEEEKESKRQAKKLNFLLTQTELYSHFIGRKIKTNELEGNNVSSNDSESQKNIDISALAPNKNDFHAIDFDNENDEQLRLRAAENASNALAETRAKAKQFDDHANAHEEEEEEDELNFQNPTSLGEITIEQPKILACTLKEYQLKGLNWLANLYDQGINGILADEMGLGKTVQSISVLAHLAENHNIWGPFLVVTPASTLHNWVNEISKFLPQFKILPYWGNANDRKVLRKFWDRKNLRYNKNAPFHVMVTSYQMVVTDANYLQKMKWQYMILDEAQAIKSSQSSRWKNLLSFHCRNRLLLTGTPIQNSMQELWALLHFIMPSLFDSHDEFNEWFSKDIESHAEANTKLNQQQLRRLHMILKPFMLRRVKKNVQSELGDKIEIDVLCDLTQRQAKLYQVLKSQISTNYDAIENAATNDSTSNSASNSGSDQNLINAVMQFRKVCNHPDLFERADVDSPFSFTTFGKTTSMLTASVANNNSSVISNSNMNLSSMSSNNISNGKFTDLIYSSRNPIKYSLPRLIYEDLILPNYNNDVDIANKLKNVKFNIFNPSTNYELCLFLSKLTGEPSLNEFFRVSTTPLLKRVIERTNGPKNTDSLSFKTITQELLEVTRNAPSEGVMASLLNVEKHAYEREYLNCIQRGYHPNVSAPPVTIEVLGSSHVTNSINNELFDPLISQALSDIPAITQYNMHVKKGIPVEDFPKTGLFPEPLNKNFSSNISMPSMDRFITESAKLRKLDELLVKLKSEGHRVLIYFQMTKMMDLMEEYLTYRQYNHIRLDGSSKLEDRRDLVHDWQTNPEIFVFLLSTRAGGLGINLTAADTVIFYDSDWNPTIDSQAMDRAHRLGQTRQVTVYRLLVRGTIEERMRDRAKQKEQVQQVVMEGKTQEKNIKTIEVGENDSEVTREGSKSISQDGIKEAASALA
# UniProt P13259: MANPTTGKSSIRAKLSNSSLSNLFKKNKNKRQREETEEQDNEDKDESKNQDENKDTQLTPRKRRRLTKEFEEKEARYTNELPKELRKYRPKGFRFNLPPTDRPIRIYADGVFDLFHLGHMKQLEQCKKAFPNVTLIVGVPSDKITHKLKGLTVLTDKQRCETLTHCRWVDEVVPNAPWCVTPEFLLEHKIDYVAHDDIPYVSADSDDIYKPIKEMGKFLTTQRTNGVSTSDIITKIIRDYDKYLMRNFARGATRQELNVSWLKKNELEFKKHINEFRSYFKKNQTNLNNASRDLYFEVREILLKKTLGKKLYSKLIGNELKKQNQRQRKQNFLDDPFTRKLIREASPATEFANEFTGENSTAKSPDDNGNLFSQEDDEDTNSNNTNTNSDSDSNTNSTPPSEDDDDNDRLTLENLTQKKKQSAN
# UniProt P33334: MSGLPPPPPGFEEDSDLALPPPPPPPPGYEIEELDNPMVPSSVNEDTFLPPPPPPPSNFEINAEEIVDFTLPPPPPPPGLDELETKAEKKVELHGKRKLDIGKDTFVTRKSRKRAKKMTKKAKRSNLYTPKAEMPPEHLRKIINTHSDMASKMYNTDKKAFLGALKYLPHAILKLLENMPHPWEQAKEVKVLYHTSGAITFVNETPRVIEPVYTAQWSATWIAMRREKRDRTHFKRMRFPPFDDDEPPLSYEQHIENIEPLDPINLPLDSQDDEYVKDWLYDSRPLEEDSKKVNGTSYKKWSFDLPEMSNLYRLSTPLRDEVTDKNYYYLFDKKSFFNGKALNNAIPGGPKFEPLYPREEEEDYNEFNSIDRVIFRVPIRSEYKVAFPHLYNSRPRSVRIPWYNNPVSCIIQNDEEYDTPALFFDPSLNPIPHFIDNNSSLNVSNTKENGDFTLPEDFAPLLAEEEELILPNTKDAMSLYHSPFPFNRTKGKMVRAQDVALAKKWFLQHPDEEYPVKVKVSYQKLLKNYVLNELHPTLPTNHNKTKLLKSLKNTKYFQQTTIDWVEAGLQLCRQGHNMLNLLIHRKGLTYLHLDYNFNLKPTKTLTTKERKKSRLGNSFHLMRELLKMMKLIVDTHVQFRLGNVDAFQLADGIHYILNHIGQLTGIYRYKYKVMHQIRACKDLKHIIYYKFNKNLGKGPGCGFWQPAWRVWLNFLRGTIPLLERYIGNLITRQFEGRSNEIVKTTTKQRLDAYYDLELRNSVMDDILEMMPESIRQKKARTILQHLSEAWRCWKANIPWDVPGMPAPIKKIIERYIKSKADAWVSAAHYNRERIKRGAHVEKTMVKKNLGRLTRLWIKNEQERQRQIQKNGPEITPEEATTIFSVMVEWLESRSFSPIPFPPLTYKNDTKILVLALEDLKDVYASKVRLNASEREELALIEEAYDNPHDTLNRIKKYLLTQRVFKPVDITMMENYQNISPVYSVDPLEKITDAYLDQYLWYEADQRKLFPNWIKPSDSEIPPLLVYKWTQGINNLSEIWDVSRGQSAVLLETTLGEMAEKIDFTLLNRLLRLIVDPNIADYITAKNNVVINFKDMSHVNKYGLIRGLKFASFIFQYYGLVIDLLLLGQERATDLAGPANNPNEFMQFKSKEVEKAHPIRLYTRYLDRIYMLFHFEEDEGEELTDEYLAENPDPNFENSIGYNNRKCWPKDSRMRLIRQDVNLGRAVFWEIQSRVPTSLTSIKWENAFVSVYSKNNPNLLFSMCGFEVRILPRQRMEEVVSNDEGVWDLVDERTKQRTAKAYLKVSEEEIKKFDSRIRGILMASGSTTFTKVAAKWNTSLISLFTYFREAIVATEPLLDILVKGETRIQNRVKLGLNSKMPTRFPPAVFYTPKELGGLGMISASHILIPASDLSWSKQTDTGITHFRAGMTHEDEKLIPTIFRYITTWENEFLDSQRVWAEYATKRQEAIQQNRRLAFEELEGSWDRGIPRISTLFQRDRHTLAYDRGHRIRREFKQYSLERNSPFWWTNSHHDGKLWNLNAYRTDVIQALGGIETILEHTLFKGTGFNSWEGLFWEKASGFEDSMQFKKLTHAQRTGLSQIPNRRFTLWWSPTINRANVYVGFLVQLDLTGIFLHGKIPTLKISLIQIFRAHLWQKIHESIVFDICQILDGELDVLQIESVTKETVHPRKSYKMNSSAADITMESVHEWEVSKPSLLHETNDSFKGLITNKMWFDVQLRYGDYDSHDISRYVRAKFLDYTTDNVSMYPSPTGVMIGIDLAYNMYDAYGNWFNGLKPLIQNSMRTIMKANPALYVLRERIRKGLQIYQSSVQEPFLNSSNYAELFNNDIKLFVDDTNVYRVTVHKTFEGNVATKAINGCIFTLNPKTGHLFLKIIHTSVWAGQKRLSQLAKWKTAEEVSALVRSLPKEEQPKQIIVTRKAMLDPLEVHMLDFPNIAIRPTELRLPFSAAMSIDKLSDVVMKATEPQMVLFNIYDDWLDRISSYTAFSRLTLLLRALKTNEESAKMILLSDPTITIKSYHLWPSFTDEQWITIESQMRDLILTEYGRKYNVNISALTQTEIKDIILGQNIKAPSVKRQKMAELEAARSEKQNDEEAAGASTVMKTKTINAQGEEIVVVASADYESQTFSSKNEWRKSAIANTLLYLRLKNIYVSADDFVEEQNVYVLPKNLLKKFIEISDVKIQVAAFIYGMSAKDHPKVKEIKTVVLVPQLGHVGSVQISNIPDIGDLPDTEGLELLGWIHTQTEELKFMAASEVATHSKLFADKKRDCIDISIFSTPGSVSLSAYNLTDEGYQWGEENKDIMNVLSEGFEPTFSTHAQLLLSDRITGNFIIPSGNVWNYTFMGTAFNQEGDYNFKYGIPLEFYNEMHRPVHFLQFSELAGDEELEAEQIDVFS
# These are yes or no findings as the source states them, for the method shown. Some results given as binding are weak or reduced against the parent protein; the word gives no strength. For some assays here: Sequences can lack the tags named with a protein.
# T1: Kap123, C-terminally twin-StrepII-tagged (S. cerevisiae) (UniProt P40069)
# T1 sequence: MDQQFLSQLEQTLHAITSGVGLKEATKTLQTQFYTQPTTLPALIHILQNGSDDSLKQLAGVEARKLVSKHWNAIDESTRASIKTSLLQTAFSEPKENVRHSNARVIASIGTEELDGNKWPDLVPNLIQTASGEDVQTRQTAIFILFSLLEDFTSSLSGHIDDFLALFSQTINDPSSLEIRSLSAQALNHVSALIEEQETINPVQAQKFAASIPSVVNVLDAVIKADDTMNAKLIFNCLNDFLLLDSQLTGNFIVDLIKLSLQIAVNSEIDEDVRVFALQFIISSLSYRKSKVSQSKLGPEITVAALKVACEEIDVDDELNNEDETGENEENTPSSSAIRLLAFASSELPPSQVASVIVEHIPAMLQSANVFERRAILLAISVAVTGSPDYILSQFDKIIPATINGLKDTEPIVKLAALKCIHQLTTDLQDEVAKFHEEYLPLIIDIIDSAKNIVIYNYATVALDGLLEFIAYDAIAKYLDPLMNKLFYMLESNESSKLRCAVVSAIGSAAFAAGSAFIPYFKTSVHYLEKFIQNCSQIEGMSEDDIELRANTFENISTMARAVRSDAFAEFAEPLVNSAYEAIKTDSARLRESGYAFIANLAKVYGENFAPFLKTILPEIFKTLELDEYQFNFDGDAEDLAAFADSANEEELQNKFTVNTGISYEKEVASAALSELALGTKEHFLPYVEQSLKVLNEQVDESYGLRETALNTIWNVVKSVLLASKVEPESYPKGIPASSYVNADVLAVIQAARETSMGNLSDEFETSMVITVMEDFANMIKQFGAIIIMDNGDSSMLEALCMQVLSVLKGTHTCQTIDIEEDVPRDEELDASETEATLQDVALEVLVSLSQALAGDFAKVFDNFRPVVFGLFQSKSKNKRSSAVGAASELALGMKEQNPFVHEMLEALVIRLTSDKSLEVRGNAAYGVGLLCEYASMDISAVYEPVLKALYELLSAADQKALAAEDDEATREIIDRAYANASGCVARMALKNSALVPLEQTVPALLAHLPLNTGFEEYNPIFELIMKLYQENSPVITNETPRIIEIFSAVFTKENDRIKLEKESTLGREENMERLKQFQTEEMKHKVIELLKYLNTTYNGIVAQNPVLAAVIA
# Key:
# [1] = target: Kap95 (importin-beta), C-terminally twin-StrepII-tagged (S. cerevisiae) (UniProt Q06142); assay: selective ribosome profiling (SeRP); lysate crosslinked with DSP, RNase I digest, ribosome-nascent chain complexes pelleted through 25% sucrose; twin-StrepII importin purified on Streptactin resin (20 mM Hepes-KOH pH 7.5, 140 mM KCl, 10 mM MgCl2, CHX, 4 °C); ribosome-protected mRNA footprints sequenced, IP/total against a no-bait wildtype; n = 4
# [2] = target: Srp1 (importin-alpha), C-terminally twin-StrepII-tagged (S. cerevisiae) (UniProt Q02821); assay: as above
# [3] = target: T1, Kap123, C-terminally twin-StrepII-tagged (S. cerevisiae); assay: as above
# [4] = target: T1, Kap123, C-terminally twin-StrepII-tagged (S. cerevisiae); assay: RIP-qPCR; high salt lysis buffer (500 mM KCl) with CHX or puromycin, DSP crosslinking; twin-StrepII Kap123 pulled down on Streptactin resin; co-purified mRNA quantified by TaqMan qPCR relative to total RNA
Molecule,binding [1],binding [3],also measured
nascent Ino80 (ribosome-bound nascent chain) (from UniProt P53115 1-1489),binds,–,binding [2]: binds
nascent Pct1 (ribosome-bound nascent chain) (from UniProt P13259 1-424),binds,–,binding [2]: binds
nascent Prp8 (ribosome-bound nascent chain) (from UniProt P33334 1-2413),binds,–,binding [2]: binds
"nascent Ecm16 (ribosome-bound nascent chain) (protein, UniProt Q04217 1-1267) MGTYRKRFNEKARSGHMAKLKELKRIRNKQFTRQDENDERVENPDSAPAESSTTEPNANAEILEPLTEEEKKMKKRKLQELFTPKESKVSRLKKKRLDKFIEHQLKREERKTIIGKLQDYKIDTSLLTSSKRLGEGRQTKKEEFKEALSLERQGRGNEQTNEILYEEYEPKVWDEYGEGGSSEDDDGEDDFEASFGSMPKPTDNEEKKSSGFIDHRPAKFGGSGLSFGFSNIKVINKESKTPKKKYNWRQRVEMEELKKHGKEDEMDFDTTSEDDDEEEDQEEEDKMHPSENPLEEVESADSETGSEKFDQNDVANEFKDWANQEIKKLEGRDQELVTPTLNIDYKPIIRKEDLDDGLQEAYVPINENSTRKAFYVEVSRSDEIQKARIQLPVFGEEHKIMEAIHHNDVVIICGETGSGKTTQVPQFLYEAGFGAEDSPDYPGMVGITQPRRVAAVSMAERVANELGDHGHKVGYQIRFDSTAKEDTKVKFMTDGVLLREMMHDFKLTKYSSIIIDEAHERNINTDILIGMLSRCVRLRAKLHKENPIEHKKLKLIIMSATLRVSDFSENKTLFPIAPPVLQVDARQFPVSIHFNRRTAFNYTDEAFRKTCKIHQKLPPGAILVFLTGQQEITHMVKRLRKEFPFKKNSKYNKDLETPVSKMGINSKTTDLEAEDIDFSVQVIDQDKFKSAIRYEEDEGNSGNGEDEEDEEEEGFEEVLTEGQTANDPLYVLPLYSLLPTKEQMRVFQKPPQGSRLCIVATNVAETSLTIPGVRYVVDSGRSKERKYNESNGVQSFEVGWVSKASANQRSGRAGRTGPGHCYRLYSSAVFEHDFEQFSKPEILRMPVESIVLQMKSMAIHNIINFPFPTPPDRVALSKAIQLLQYLGALDNKEMITEDGKKMSLFPLSPRFSKMLLVSDEKACLPYIVAIVSALSVGDPFINEFELGINEISRKPNPDENLDDKIREHDESTPGMDPELKKELRSKFYKSRSQFSKLDKFSDVFRLLSVVSAMDYVPKEQKEIFMKKNFLRGKLMEEIVKLRKQLMYIIKSNTSKENIAVVIRNEDLKSDIPSVIQIKLLKQMICAGFVDHVAVRADVLFPDDAKITNRTSIINIPYIPVLATRTPNIEDCFVYIHPTSILNNLGEMPPKYMLYYSLHLGGNNKTRMNTLCDIASTPLANIARKGLLLTYSKPLTGQGLKTVNLSPTERYCYVVPRFGSTVDNDLKIGWDLNPIAVHQKKQKGQWTVIKFITRKGFQTITGEEKEKK",–,binds,–
"nascent Aim44 (ribosome-bound nascent chain) (protein, UniProt Q99299 1-758) MIIRAPIRTKTKSFRGDQMDFKFPSNESLPRGTLEEYHLNNHHLLNDVFAAENGVSRDEDGNSQTLSDYTSTSNTNTNSGYSSNGYYSFANISDNTTSSPRIVINQNETARLTSSDSNKSDFFASHDFPGNDSLHYSSSNVVKNQLHSMEAIPEGNITGSISTAFQTIPTADNVSYDIAPSSASSLLPRKSTSKSAILPSTQEAKPMTKLNMEKDIKTIELNNSVVPKPKKKLNRVPTIRRVESSRFSNSRYSSSVSSKSSSSRCSLKRSKAIRCKGGLLYYFTSLGIKIKKKLRKLRLVLRRRLFSYNVQKVPSATNSKTTKSKANINNKSKKRGTNLVNKNSNSTPRQKKSQRYVSNLQRSISSKSLVPVLAPQKKTKPLTVDTKFKANHPQSEDSKVGSNTPRSPLVSYTPSLRRTNSSIRRAASILTASATMTPANNKNSFISVPDNVSHAVTRNSSMYSRSRLVRSKPSTALNAIARQPSIVVENKVIPLSMNRYSIKEEDEYVIDTSSMRELSPVNSVCSSDYDRESSESYSNYADAMETTEVDNKDRVECNNEIQNVDANNEETSNEESYNLMKHYLSTVIAQRIMLRVQIARIQNYKSNVVYMNKSAETNSTIYEDLVDSLLTEYEADGSSSQIFDGVTVRADEEEEEDEDDEDDEEEEEENDDEEDEEDEEDDEDDEEEEEKRKEGEGRNLAKEVDELAELSPMRKQSDLSITLRSPFAMLNPAYSNSIISLPTGVVKRSLTLPVGMKI",–,–,binding [4]: binds
"nascent Nug1 (ribosome-bound nascent chain) (protein, UniProt P40010 1-520) MRVRKRQSRRTSTKLKEGIKKKASAHRKKEKKMAKKDVTWRSRSKKDPGIPSNFPYKAKILEEIEAKKMKDLEERELAKQQRLEARKAAKEQGVDAMDEDMIEDDENGLAALVESAQQAAAEYEGTPSNDADVRDDELDVIDYNIDFYGEDVEGESELEKSRKAYDKIFKSVIDASDVILYVLDARDPESTRSRKVEEAVLQSQGKRLILILNKVDLIPPHVLEQWLNYLKSSFPTIPLRASSGAVNGTSFNRKLSQTTTASALLESLKTYSNNSNLKRSIVVGVIGYPNVGKSSVINALLARRGGQSKACPVGNEAGVTTSLREIKIDNKLKILDSPGICFPSENKKRSKVEHEAELALLNALPAKHIVDPYPAVLMLVKRLAKSDEMTESFKKLYEIPPIPANDADTFTKHFLIHVARKRGRLGKGGIPNLASAGLSVLNDWRDGKILGWVLPNTSAAASQQDKQNLSTINTGTKQAPIAANESTIVSEWSKEFDLDGLFSSLDKAIDASKDQDTMME",–,binds,–
"nascent Noc2 (ribosome-bound nascent chain) (protein, UniProt P39744 1-710) MGKVSKSTKKFQSKHLKHTLDQRRKEKIQKKRIQGRRGNKTDQEKADAAGTREQQQLKKSAKEEVFKDMSVETFFEKGIEIPKENKKLKKKTTKEQSDEDSSSSEEEEDMGQSMAKLAEKDPEFYKYLEENDKDLLDFAGTNPLDGIDSQDEGEDAERNSNIEEKSEQMELEKEKIELSLKLVRKWKKQLHDSPSLKLLRNIISAFKVAVNLNKEENIEDYKYAITDEKAFHELMFMVLKDVPQAIQKMAPYKIVKGARTLPNGGNVSRVSSIVKSHAGSLLILLNDITNTETAALVLHSVNELMPYLLSYRRILKELIKSIVGVWSTTRELETQIASFAFLINTTKEFKKSMLETTLKTTYSTFIKSCRKTNMRSMPLINFQKNSAAELFGIDEVLGYQVGFEYIRQLAIHLRNTMNATTKKSSKINSAEAYKIVYNWQFCHSLDFWSRVLSFACQPEKENGSESPLRQLIYPLVQVTLGVIRLIPTPQFFPLRFYLIKSLIRLSQNSGVFIPIYPLLSEILTSTAFTKAPKKSPNLAAFDFEHNIKCTQAYLNTKIYQEGLSEQFVDLLGDYFALYCKNIAFPELVTPVIISLRRYIKTSTNVKLNKRLSTVVEKLNQNSTFIQEKRSDVEFGPTNKSEVSRFLNDVAWNKTPLGSYVAVQREVKEEKARLMRESMEEQDKERETEEAKLLNSLESDDDNEDVEMSDA",–,binds,–

# Now from value to molecule, other results behind:
binding [1],binding [3],Molecule,also measured
binds,–,nascent Srp1 (ribosome-bound nascent chain) (from UniProt Q02821 1-542),–
–,binds,"nascent Rpl18a (ribosome-bound nascent chain) (protein, UniProt P0CX49 1-186) MGIDHTSKQHKRSGHRTAPKSDNVYLKLLVKLYTFLARRTDAPFNKVVLKALFLSKINRPPVSVSRIARALKQEGAANKTVVVVGTVTDDARIFEFPKTTVAALRFTAGARAKIVKAGGECITLDQLAVRAPKGQNTLILRGPRNSREAVRHFGMGPHKGKAPRILSTGRKFERARGRRRSKGFKV",–
–,binds,"nascent Rps5 (ribosome-bound nascent chain) (protein, UniProt P26783 1-225) MSDTEAPVEVQEDFEVVEEFTPVVLATPIPEEVQQAQTEIKLFNKWSFEEVEVKDASLVDYVQVRQPIFVAHTAGRYANKRFRKAQCPIIERLTNSLMMNGRNNGKKLKAVRIIKHTLDIINVLTDQNPIQVVVDAITNTGPREDTTRVGGGGAARRQAVDVSPLRRVNQAIALLTIGAREAAFRNIKTIAETLAEELINAAKGSSTSYAIKKKDELERVAKSNR",–
–,binds,"nascent Rps1a (ribosome-bound nascent chain) (protein, UniProt P33442 1-255) MAVGKNKRLSKGKKGQKKRVVDPFTRKEWFDIKAPSTFENRNVGKTLVNKSTGLKSASDALKGRVVEVCLADLQGSEDHSFRKIKLRVDEVQGKNLLTNFHGMDFTTDKLRSMVRKWQTLIEANVTVKTSDDYVLRIFAIAFTRKQANQVKRHSYAQSSHIRAIRKVISEILTKEVQGSTLAQLTSKLIPEVINKEIENATKDIFPLQNIHVRKVKLLKQPKFDVGALMALHGEGSGEEKGKKVTGFKDEVLETV",–
